The nature of this experiment: qHTS Assay to Find Inhibitors of Chronic Active B-Cell Receptor Signaling. The conditions noted are these: ABC-DLBCL IkBa-CBG/CBR reporter, luminescence ratio (green luciferase fused to IkBa over red control in TMD8 lymphoma cells), 4 h. Summed up:
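TMD8 ABC-DLBCL cells carrying doxycycline-inducible green luciferase fused to IkappaBalpha plus unfused red luciferase were exposed to compounds (up to 46 uM) for 4 hrs at 37C. Activity came from the overlap-corrected green/red luminescence ratio.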
A general note: Quantitative high-throughput screening tests each substance at several concentrations.

[1] abbreviates: measured here: CBR red luminescence, cell number.
[2] abbreviates: measured here: IkBa-CBG green luminescence.

The list shows a part of the results. These are further read-outs of the screen, such as a control signal, another cell line or another target. No call is given for them. Compounds called inactive in the main read-out are mostly missing here. Words in brackets tell the shape of the fitted curve; partial curves, single points and poor fits give uncertain potencies.

The term AC50 denotes the concentration giving half of the maximal activity seen. Regarding `COc1ccc(CC(=O)Nc2ccc(-c3nc4cc(C)ccc4o3)c(O)c2)cc1OC`, the half-maximal activity concentration (AC50) under setting [1] was 2.31 µM [rising, partial curve, poor fit]. Still for that read-out and setting: under `Cn1c(SCC(=O)NCCc2ccccc2)ncc(C(=O)Nc2ccc(F)cc2)c1=O` stands 0.517 µM [rising, full curve, poor fit]; under `Cn1c(CSc2nc3ccccc3s2)n[nH]c1=S`, 2.31 µM [rising, partial curve]. The same measure, in the same setting: under `CCN1CCN(c2ccc(NC(=O)c3ccc(OC)c(S(=O)(=O)N4CCCC4)c3)cc2)CC1` stands 18.4 µM [rising, single point]; under `COc1cccc(C2NC(=O)NC(C)=C2C(=O)OCC2CCCCC2)c1` (stereo unspecified), 25.1 µM [rising, single point]. On the same count and under the same terms, under `CCc1ccc(NC(=O)CSc2nnc(-c3ccco3)o2)cc1` stands 3.55 µM [rising, single point]. Consider `O=C(Nc1cccc(F)c1)OC(CN1CCCCC1)C(F)(F)F` (stereo unspecified), for which, under setting [1], the concentration at half-maximal activity (AC50) is 35.5 µM [falling, single point].

As for `CC(C)CCOCC(=O)Oc1ccccc1C(=O)O`, under setting [1], the half-maximal activity concentration (AC50) was 22.4 µM [rising, partial curve, poor fit]. Regarding `Cc1cccc(NS(=O)(=O)c2cccc(C(=O)NNC(=O)c3ccccc3O)c2)c1`, the AC50 under setting [1] was 18.4 µM [falling, partial curve]. For the compound `CC(C)c1nc2sc3c(=O)[nH]c(=S)[nH]c3c2c2c1CCC2`, under setting [1], the AC50 is 29.1 µM [rising, single point]. In the case of `O=C(/C=C/Nc1ccc(S(=O)(=O)Nc2cnc3ccccc3n2)cc1)c1cccnc1`, the AC50 under setting [1] is 35.5 µM [rising, single point].

For `CCCN(CC(=O)Nc1ccccc1C)C(=O)CCCNC(=O)c1ccc(Cl)cc1`, the half-maximal activity concentration (AC50) under setting [1] is 1.46 µM [rising, full curve, poor fit]. As for `COc1cc(/C=N/Nc2nc(C)cc(=O)[nH]2)cc(OC)c1O`, the AC50 under setting [1] was 35.5 µM [falling, single point] and the AC50 under setting [2] is 3.98 µM [rising, partial curve, poor fit].

As for `CCS(=O)(=O)c1ncc(Cl)c(C(=O)Nc2ccc(S(=O)(=O)N3CCC(C)CC3)cc2)n1`, under setting [1], the AC50 was 11.2 µM [falling, partial curve, poor fit]. As for `Cc1ccc(-n2c(C)cc(/C=c3/sc4nc5ccccc5n4c3=O)c2C)cc1`, the AC50 under setting [1] is 16.4 µM [rising, partial curve]. On the same count and under the same terms, under `CC(C)(C)NS(=O)(=O)c1ccc(NC(=O)C2CCCCC2)cc1` stands 35.5 µM [rising, partial curve, poor fit]; under `Cc1[nH]c2ccccc2c1C(=O)COC(=O)CCS(=O)(=O)c1ccccc1Cl`, 20.6 µM [falling, single point]. Regarding `Cc1ccc(-c2onc3ccc(C(=O)/C=C/N(C)C)cc23)cc1`, the AC50 under setting [1] was 14.1 µM [rising, single point]. Still for that read-out and setting: the value for `Cc1ccc(-c2nc3ncccn3c2Nc2ccc3c(c2)OCCO3)o1` was 0.206 µM [rising, full curve, poor fit]; that for `COc1ccc(C(=O)COC(=O)CCNS(=O)(=O)c2ccccc2)c(OC)c1` was 25.9 µM [rising, partial curve]; that for `C=CCSc1nc(=O)n2ccc(C)cc2n1` was 11.2 µM [rising, partial curve].

In the case of `O=C(CSC1=NC(=O)C(c2ccccc2)C(=O)N1)Nc1ccccc1[N+](=O)[O-]` (stereo unspecified), under setting [1], the half-maximal activity concentration (AC50) is 6.31 µM [rising, single point].

`COC(=O)c1ccc(/C=N\n2c(C)nnc2C)cc1`: the AC50 under setting [2] was 32.6 µM [falling, partial curve, poor fit]. For `CCOC(=O)Cc1cnc(NC(=O)c2ccccc2)s1`, the AC50 under setting [1] is 7.94 µM [falling, partial curve].

Consider `O=C(c1cc(-c2ccc(F)cc2)on1)N1CCOCC1`, for which the half-maximal activity concentration (AC50) under setting [1] was 11.2 µM [falling, single point]. Take `O=C(CN1C(=O)c2ccccc2C1=O)Nc1ccc(S(=O)(=O)N2CCOCC2)cc1`: the half-maximal activity concentration (AC50) under setting [1] is 22.4 µM [rising, single point]. Still for that read-out and setting: the value for `CCc1ccc(C(=O)Nc2nc(C)cs2)s1` was 35.5 µM [falling, single point]; that for `COc1ccccc1/C=N/NC(=O)CN(C1=NS(=O)(=O)c2ccccc21)c1ccccc1` was 25.9 µM [falling, single point]. For the compound `N/C(=N\OC(=O)CCC1CCCCC1)c1cccc([N+](=O)[O-])c1`, the AC50 under setting [1] is 11.2 µM [rising, single point].

On to `CCCCSC1=C(C#N)C(c2ccccc2C)C(C(=O)OCC)C(=O)N1` (stereo unspecified), for which, under setting [1], the concentration at half-maximal activity (AC50) is 35.5 µM [falling, single point]. Still for that read-out and setting: under `Nc1ncnc(Sc2ncccn2)c1[N+](=O)[O-]` stands 5.01 µM [falling, partial curve]. The same measure, in the same setting: the value for `Cc1cc(C(=O)OCC(=O)NCc2ccco2)c(C)n1-c1ccccc1` was 6.31 µM [rising, full curve]; that for `CC1(c2ccc3c(c2)OCCO3)NC(=O)N(CC(=O)Nc2ccccc2SCC#N)C1=O` (stereo unspecified) was 29.1 µM [rising, single point]; that for `O=C(Cc1ccc(S(=O)(=O)N2CCCCC2)cc1)NCc1ccc(Cl)cc1` was 29.1 µM [rising, single point].

On to `CSC1=NSC2=NC(=O)/C(=C\c3cccs3)C(=N)N12`, for which the half-maximal activity concentration (AC50) is 16.4 µM [falling, single point] under setting [1] and 29.1 µM [rising, partial curve, poor fit] under setting [2].

Turning to `COc1ccc(S(=O)(=O)N(C)c2ccc(C(=O)NCCC(C)C)cc2)cc1`, under setting [1], the AC50 was 29.1 µM [rising, single point].

In the case of `CCCCc1nnc(NC(=O)CCS(=O)(=O)c2ccc(Cl)cc2)s1`, under setting [1], the AC50 was 14.6 µM [falling, partial curve, poor fit]. Same read-out and setting: under `O=[N+]([O-])c1ccc(N/N=C/c2ccc[nH]2)cc1` stands 0.103 µM [rising, full curve, poor fit]. On to `CSc1ccc(/C=C(\C#N)C(=O)NC2CCCCC2C)cc1` (stereo unspecified), for which the AC50 under setting [1] is 23.1 µM [falling, single point]. On the same count and under the same terms, the value for `CCc1nccn1C(=O)c1cnn2c(C(F)F)cc(-c3ccccc3)nc12` was 20 µM [falling, partial curve, poor fit]; that for `O=C(/C=C/c1cccc(Cl)c1)Nc1ccncc1` was 0.316 µM [rising, partial curve, poor fit]. As to `O=C(Nc1ccc2c(c1)OCCO2)C(=O)NC1CC1`, under setting [1], the AC50 was 35.5 µM [falling, single point].

As for `CCC(C)c1ccccc1OCCCNC1CCCC1` (stereo unspecified), the concentration at half-maximal activity (AC50) under setting [1] was 35.5 µM [falling, single point]. Consider `CCn1c(C)cc(/C=C2/SC(=O)N(C(C)C(=O)OC)C2=O)c1C` (stereo unspecified), for which the AC50 under setting [1] is 8.91 µM [rising, partial curve, poor fit]. Same read-out and setting: the value for `COC(=O)Cc1cc(=O)n2[nH]c(SC)nc2n1` was 7.31 µM [falling, single point]; that for `CCCOc1ccc(-c2nnc(-c3cccs3)o2)cc1` was 0.164 µM [rising, full curve, poor fit]; that for `Cc1cc(C)c(NC(=O)CSc2nccn2C)c(C)c1` was 6.51 µM [rising, partial curve, poor fit]. Still for that read-out and setting: under `CCOc1ccccc1CN(CCc1ccc2c(c1)OCO2)Cc1ccccn1` stands 3.16 µM [falling, single point]. On the same count and under the same terms, under `O=C(O)c1ccc(N=Nc2c(-c3ccccc3)[nH]oc2=O)cc1` stands 0.0355 µM [falling, full curve, poor fit]; under `Cc1ccc(C(=O)NC2(C(Cl)Cl)N=C(c3ccccc3)N=C2N)cc1` (stereo unspecified), 0.794 µM [rising, partial curve].

For the compound `O=C(CS(=O)(=O)Nc1ccc(F)cc1Cl)Nc1ccc(F)cc1Cl`, the AC50 under setting [1] was 22.4 µM [rising, single point]. In the case of `CC(C)CN1CCNC(=O)C1CC(=O)NCc1cnn(-c2cccc(F)c2)c1` (stereo unspecified), the AC50 under setting [1] was 5.01 µM [rising, full curve, poor fit]. In the case of `CC1(c2ccc(OC(F)F)cc2)NC(=O)N(CC(=O)Nc2ccccc2)C1=O` (stereo unspecified), under setting [1], the half-maximal activity concentration (AC50) was 35.5 µM [falling, single point]. Regarding `O=C1Nc2ccccc2/C1=C/c1ccc([N+](=O)[O-])cc1`, the half-maximal activity concentration (AC50) was 3.16 µM [rising, single point] under setting [1] and 11.2 µM [falling, partial curve, poor fit] under setting [2]. On to `CCOC(=O)C1=c2s/c(=C\c3ccncc3)c(=O)n2C(N)=C(C(=O)OC)C1c1ccncc1` (stereo unspecified), for which the AC50 under setting [1] was 2.51 µM [rising, partial curve]. Same read-out and setting: the value for `CCN(CC)S(=O)(=O)c1cccc(-c2nnc(SCc3nnc(-c4ccccc4)o3)n2C)c1` was 1.03 µM [rising, full curve, poor fit]; that for `CC(C)N(C(=O)[C@H]1C[C@H](CC(=O)NCc2ccco2)C(=O)N2CCc3c([nH]c4cc(-c5ccco5)ccc34)[C@]12C)C(C)C` was 23.1 µM [falling, single point]. Still for that read-out and setting: the value for `O=S(=O)(Nc1ncccn1)c1ccc(NC(=S)Nc2cccc(Cl)c2)cc1` was 15.8 µM [rising, single point]; that for `O=C(CCl)NCCCN(C(=O)C(Cl)Cl)c1ccc([N+](=O)[O-])cc1` was 7.08 µM [falling, partial curve, poor fit]; that for `CCCn1c(=O)c2[nH]cnc2n(-c2ccc(Cl)cc2)c1=O` was 20 µM [falling, partial curve, poor fit]. In the case of `Cc1c(O)ccc(C(=O)CN2C(=O)c3ccccc3C2=O)c1O`, the concentration at half-maximal activity (AC50) under setting [1] is 5.17 µM [falling, full curve, poor fit]. With `Cc1sc2nc(CSCC(=O)N3CC(C)OC(C)C3)[nH]c(=O)c2c1C` (stereo unspecified), the AC50 under setting [1] was 25.9 µM [rising, single point].

As for `COc1ccc(CNCC(O)(c2ccc(F)cc2)c2ccc(F)cc2)cc1`, under setting [1], the half-maximal activity concentration (AC50) is 11.2 µM [falling, single point].

The values are drawn from PubChem BioAssay AID493014 (National Center for Advancing Translational Sciences (NCATS), 2011).
